Assay results published in article doi:10.1101/2025.05.22.655396.

By UniProt entry, the sequences of proteins in these tests, tags left out.
UniProt Q07820: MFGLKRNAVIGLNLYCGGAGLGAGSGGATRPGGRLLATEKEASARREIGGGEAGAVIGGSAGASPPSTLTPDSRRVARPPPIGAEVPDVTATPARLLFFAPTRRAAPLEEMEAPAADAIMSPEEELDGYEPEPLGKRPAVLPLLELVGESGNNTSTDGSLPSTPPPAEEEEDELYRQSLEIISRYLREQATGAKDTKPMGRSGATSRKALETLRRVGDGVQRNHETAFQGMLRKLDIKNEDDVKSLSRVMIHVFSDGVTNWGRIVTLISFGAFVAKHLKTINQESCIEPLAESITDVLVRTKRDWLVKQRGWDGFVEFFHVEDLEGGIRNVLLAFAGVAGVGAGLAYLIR
UniProt Q7Z5L9: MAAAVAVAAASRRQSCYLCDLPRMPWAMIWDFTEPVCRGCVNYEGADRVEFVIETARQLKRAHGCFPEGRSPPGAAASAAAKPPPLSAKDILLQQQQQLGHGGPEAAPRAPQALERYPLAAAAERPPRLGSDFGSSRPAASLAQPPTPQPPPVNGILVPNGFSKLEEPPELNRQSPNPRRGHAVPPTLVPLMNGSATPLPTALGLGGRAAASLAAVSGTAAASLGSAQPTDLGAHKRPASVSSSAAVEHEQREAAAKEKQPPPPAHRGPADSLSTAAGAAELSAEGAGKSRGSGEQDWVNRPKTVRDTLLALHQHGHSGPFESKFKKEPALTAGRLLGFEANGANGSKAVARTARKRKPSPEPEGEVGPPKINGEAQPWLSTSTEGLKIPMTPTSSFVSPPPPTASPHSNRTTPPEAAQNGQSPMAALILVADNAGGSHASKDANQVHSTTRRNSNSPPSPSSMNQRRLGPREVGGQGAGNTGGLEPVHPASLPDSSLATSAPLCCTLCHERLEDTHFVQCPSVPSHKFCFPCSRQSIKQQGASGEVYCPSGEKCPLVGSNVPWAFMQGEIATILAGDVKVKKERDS

Target: MCL1 (human (endogenous in primary AML cells)) (UniProt Q07820)
Assay: affinity purification with mass spectrometry

| binding | Molecule |
| --- | --- |
| binds | Interferon Regulatory Factor 2 Binding Protein 2 (from UniProt Q7Z5L9 1-587) |
| binds | acyl-CoA synthetase long-chain family member 1 (enzyme, UniProt P33121 1-698) MQAHELFRYFRMPELVDFRQYVRTLPTNTLMGFGAFAALTTFWYATRPKPLKPPCDLSMQSVEVAGSGGARRSALLDSDEPLVYFYDDVTTLYEGFQRGIQVSNNGPCLGSRKPDQPYEWLSYKQVAELSECIGSALIQKGFKTAPDQFIGIFAQNRPEWVIIEQGCFAYSMVIVPLYDTLGNEAITYIVNKAELSLVFVDKPEKAKLLLEGVENKLIPGLKIIVVMDAYGSELVERGQRCGVEVTSMKAMEDLGRANRRKPKPPAPEDLAVICFTSGTTGNPKGAMVTHRNIVSDCSAFVKATENTVNPCPDDTLISFLPLAHMFERVVECVMLCHGAKIGFFQGDIRLLMDDLKVLQPTVFPVVPRLLNRMFDRIFGQANTTLKRWLLDFASKRKEAELRSGIIRNNSLWDRLIFHKVQSSLGGRVRLMVTGAAPVSATVLTFLRAALGCQFYEGYGQTECTAGCCLTMPGDWTAGHVGAPMPCNLIKLVDVEEMNYMAAEGEGEVCVKGPNVFQGYLKDPAKTAEALDKDGWLHTGDIGKWLPNGTLKIIDRKKHIFKLAQGEYIAPEKIENIYMRSEPVAQVFVHGESLQAFLIAIVVPDVETLCSWAQKRGFEGSFEELCRNKDVKKAILEDMVRLGKDSGLKPFEQVKGITLHPELFSIDNGLLTPTMKAKRPELRNYFRSQIDDLYSTIKV |

Results are given in words; binding and its absence hold for the method and conditions named. Binding seen in cells or lysates may run through a third protein. These calls come from enrichment with a bait or labelling near it, and not all partners need be listed.
